Test results from publication PMC10550928.
These are yes or no findings as the source states them, for the method shown. In cells and extracts the contact can be indirect. Here binding means that the protein was enriched with, or labelled near, the bait; the list need not be complete. Where a sequence is shown, tags or fusion partners need not be part of it.

T1: MeeF-FLAG (B. subtilis) (UniProt O34447)
T1 sequence: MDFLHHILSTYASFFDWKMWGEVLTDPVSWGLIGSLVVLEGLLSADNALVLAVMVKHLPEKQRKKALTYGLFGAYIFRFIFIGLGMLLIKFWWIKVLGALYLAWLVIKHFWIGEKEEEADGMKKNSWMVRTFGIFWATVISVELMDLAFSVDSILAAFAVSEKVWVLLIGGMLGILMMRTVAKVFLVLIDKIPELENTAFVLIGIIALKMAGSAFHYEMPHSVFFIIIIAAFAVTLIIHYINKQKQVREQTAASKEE

T2: MeeY-FLAG (B. subtilis) (UniProt O34997)
T2 sequence: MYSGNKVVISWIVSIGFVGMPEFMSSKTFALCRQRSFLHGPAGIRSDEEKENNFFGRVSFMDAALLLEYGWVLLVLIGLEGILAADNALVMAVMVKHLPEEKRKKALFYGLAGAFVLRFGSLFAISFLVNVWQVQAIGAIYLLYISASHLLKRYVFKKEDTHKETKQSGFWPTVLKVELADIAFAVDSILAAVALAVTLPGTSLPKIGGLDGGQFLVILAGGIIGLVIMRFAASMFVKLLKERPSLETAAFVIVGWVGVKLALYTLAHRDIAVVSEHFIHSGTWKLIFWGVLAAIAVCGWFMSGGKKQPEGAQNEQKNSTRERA


How the values were obtained:
[1] = target: T1, MeeF-FLAG (B. subtilis); test: affinity purification with mass spectrometry; anti-FLAG M2 magnetic beads on lysates (1% Triton X-100) of B. subtilis grown overnight in LB with 50 uM Mn; 30 °C for 3 h; washed with 1X PBS; eluted by heating at 95 °C in 2X Laemmli sample buffer; LC-MS/MS; membrane proteins found in the sample but not in the untagged WT controls
[2] = target: T2, MeeY-FLAG (B. subtilis); test: as above

binding [1]	binding [2]	Binder
binds	binds	SwrC (protein, UniProt O31501 1-1052) MNHVINFVLKNKFAVWLMTIIVTAAGLYAGMNMKQESIPDVNMPYLTISTTYPGATPSQVADEVTKPVEQAVQNLDGVSVVTSTSYENASSVMIEYDYEKDMDKAKTEAAEALENVNLPDDAKDPEISRYSLNSFPILTLSVSSDKDNLQELTKQVEDSLVSKLEGIEGVASVQVSGQQVEEVEFSFKEDKLKEYGLDEDTVKQVIQGSDVTTPLGLYTFGNEEKSVVVSGDIETIKDLKNMRIPTASASSAGSSAASQAGAQSAQAAQSAQAAAQVQQSASTAVPTVKLSDIATIKDVKKAESVSRTNGKDSIGINIVKANDANTVEVADDVKAELKKFKEDHKGFNYSATLDMAEPITQSVDTMLSKAIFGAIFAIVIILLFLRDIKSTLISVVSIPLSLLIALLVLQQLDITLNIMTLGAMTVAIGRVVDDSIVVIENIYRRMRLKDEPLRGKALVREATKEMFKPIMSSTIVTIAVFLPLALVGGQIGELFIPFALTIVFALAASLVISITLVPMLAHSLFKKSLTGAPIKAKEHKPGRLANIYKKVLNWALSHKWITSIIAVLMLLGSLFLVPLIGASYLPSEEEKTMQLTYSPEPGETKKEAENEAEKAEKILLDRKHVDTVQYSLGSGSPLAGGDSNGALFYIKYESDTPDFDKEKDNVLKEIQKQSDRGEWKSQDFSSSGNNNELTYYVYGDSENDIKDTVKDIEKIMKDEKDLKNVNSGLSSTYDEYTFVADQEKLSKLGLTASQISQALMSQTSQEPLTTVKKDGKELDVNIKTEKDEYKSVKDLENKKITSATGQEVKIGDVAKVKEGSTSDTVSKRDGKVYADVTGEVTSDNVTAVSAAIQKKIDKLDHPDNVSIDTGGVSADIADSFTKLGLAMLAAIAIVYLVLVITFGGALAPFAILFSLPFTVIGALVGLYVSGETISLNAMIGMLMLIGIVVTNAIVLIDRVIHKEAEGLSTREALLEAGSTRLRPILMTAIATIGALIPLALGFEGGSQVISKGLGVTVIGGLISSTLLTLLIVPIVYEVLAKFRKKKPGTEEE
binds	binds	SdhA (protein, UniProt P08065 1-586) MSQSSIIVVGGGLAGLMATIKAAESGMAVKLFSIVPVKRSHSVCAQGGINGAVNTKGEGDSPWEHFDDTVYGGDFLANQPPVKAMCEAAPSIIHLLDRMGVMFNRTPEGLLDFRRFGGTQHHRTAYAGATTGQQLLYALDEQVRRYEVAGLVTKYEGWEFLGAVLDDDRTCRGIVAQNLTNMQIESFRSDAVIMATGGPGIIFGKSTNSMINTGSAASIVYQQGAYYANGEFIQIHPTAIPGDDKLRLMSESARGEGGRVWTYKDGKPWYFLEEKYPAYGNLVPRDIATREIFDVCVNQKLGINGENMVYLDLSHKDPKELDIKLGGIIEIYEKFMGDDPRKLPMKIFPAVHYSMGGLWVDYDQMTNIPGLFAAGECDYSMHGGNRLGANSLLSAIYGGMVAGPNAVKYVNGLESSAEDMSSSLFDAHVKKEEEKWADIMSMDGTENAYVLHKELGEWMTANVTVVRHNDKLLKTDDKIQELMERFKKININDTTKWSNQGAMFTRQFSNMLQLARVITLGAYNRNESRGAHYKPDYPERNDDEWLKTTMAKHVSPYEAPEFEYQDVDVSLITPRKRDYSKKKVAK

The next lines start with the binder.

Binder	binding [1]	binding [2]
OppF (protein, UniProt P24137 1-305) MTEKLLEIKHLKQHFVTPRGTVKAVDDLSFDIYKGETLGLVGESGCGKSTTGRSIIRLYEATDGEVLFNGENVHGRKSRKKLLEFNRKMQMIFQDPYASLNPRMTVADIIAEGLDIHKLAKTKKERMQRVHELLETVGLNKEHANRYPHEFSGGQRQRIGIARALAVDPEFIIADEPISALDVSIQAQVVNLMKELQKEKGLTYLFIAHDLSMVKYISDRIGVMYFGKLVELAPADELYENPLHPYTKSLLSAIPLPDPDYERNRVRQKYDPSVHQLKDGETMEFREVKPGHFVMCTEAEFKAFS	binds	binds
FloA (protein, UniProt P54466 1-331) MDPSTLMILAIVAVAIIVLAVFFTFVPVMLWISALAAGVKISIFTLVGMRLRRVIPNRVVNPLIKAHKAGLNVGTNQLESHYLAGGNVDRVVNALIAAQRANIELTFERCAAIDLAGRDVLEAVQMSVNPKVIETPFIAGVAMDGIEVKAKARITVRANIERLVGGAGEETIVARVGEGIVSTIGSSDNHKKVLENPDMISQTVLGKGLDSGTAFEILSIDIADVDIGKNIGAILQTDQAEADKNIAQAKAEERRAMAVAQEQEMRARVEEMRAKVVEAEAEVPLAMAEALREGNIGVMDYMNIKNIDADTEMRDSFGKLTKDPSDEDRKS	binds	binds
